Drawing on paper PMC10079926, this text covers binding for 4 substances.

The chains behind the UniProt entries cited, without tags or fusion partners. Where a name states a change or a piece, a line headed by the entry shows the natural chain unless it says otherwise. Residues count along the entry.
UniProt Q5GJ75: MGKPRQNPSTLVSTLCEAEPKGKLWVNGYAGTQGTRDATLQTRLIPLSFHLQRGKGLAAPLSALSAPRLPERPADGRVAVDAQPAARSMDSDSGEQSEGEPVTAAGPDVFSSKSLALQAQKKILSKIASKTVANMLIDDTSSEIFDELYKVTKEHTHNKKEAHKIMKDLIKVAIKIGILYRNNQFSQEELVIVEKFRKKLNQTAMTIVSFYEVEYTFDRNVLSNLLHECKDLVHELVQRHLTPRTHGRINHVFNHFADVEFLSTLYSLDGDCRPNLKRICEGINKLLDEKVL
UniProt O75947: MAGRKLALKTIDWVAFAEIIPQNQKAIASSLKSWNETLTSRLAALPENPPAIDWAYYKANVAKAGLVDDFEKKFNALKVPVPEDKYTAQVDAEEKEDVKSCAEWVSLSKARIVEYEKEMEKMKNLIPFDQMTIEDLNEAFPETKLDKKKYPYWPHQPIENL
UniProt Q07812: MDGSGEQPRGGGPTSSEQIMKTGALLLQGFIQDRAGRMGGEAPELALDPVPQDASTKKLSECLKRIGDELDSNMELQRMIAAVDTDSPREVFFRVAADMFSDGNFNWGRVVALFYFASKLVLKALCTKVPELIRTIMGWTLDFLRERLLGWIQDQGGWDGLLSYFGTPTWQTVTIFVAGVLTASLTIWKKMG
UniProt O00429: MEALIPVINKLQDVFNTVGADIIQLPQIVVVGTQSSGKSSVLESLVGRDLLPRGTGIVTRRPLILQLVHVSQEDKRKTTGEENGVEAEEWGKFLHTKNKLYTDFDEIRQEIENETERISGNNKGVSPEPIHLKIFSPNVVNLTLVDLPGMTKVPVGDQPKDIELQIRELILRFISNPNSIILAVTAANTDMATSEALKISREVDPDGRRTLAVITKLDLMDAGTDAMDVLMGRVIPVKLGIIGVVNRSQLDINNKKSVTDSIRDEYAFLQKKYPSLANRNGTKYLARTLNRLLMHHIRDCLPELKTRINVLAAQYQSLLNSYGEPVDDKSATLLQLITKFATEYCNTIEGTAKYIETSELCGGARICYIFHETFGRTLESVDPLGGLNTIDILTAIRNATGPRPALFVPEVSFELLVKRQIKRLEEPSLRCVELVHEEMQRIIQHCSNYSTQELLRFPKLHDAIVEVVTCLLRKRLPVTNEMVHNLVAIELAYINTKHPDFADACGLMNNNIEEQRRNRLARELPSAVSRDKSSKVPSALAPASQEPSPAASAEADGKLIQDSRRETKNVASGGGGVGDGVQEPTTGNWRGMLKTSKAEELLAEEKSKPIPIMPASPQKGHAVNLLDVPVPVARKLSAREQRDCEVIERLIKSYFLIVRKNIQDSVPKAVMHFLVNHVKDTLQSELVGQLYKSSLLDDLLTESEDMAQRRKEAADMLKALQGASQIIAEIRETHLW
UniProt P19404, residues 33-249: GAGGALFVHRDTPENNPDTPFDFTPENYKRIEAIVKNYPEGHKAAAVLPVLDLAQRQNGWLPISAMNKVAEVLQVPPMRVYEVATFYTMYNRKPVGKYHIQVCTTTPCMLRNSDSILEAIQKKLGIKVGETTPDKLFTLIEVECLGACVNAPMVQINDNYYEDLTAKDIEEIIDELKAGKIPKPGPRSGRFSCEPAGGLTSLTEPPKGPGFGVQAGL

No constants are given. Whether binding was seen depends on the method and setting. Binding seen in cells or lysates may run through a third protein. A result given as binding can be weak or reduced; the word gives no strength.

The test addresses TIPE3-HA (full-length TIPE3, TNFAIP8L3) (UniProt Q5GJ75). In words: co-IP; co-IP/WB in Cal33 and HN6 cells expressing TIPE3-HA (or trTIPE3-HA, NT-HA); IP lysis buffer, antibody overnight at 4 °C, protein A/G Sepharose beads; anti-IgG as negative control.
In the case of “ATP5H (Complex V) (from UniProt O75947 1-161)”, the binding entry is “binds”.
In the case of BAX (from UniProt Q07812 1-192) it was “binds”; in that of “DRP1 (dynamin-like protein) (from UniProt O00429 1-736) (enzyme)”, “no binding”; in that of “NDUFV2 (Complex I) (from UniProt P19404 33-249)”, “binds”.
